Results are given in words; binding and its absence hold for the method and conditions named. For some assays here: In cells and extracts the contact can be indirect. Some binding calls cover weakened binding; strength is not graded here. For some assays here: Tags and fused reporters may be left off the sequences shown. One block for each molecule: values may come before it.
Key:
[1] = molecular target: T1, GST-GRD (GRD domain of GAPA, residues 202-557, GST fusion) (D. discoideum) (UniProt O00899); assay: pull-down; glutathione sepharose beads coated with GST-GRD or GST-GAPA incubated with D. discoideum cell lysates at 4°C; eluates resolved by SDS-PAGE and immunoblotted; only the target purified
T1 sequence: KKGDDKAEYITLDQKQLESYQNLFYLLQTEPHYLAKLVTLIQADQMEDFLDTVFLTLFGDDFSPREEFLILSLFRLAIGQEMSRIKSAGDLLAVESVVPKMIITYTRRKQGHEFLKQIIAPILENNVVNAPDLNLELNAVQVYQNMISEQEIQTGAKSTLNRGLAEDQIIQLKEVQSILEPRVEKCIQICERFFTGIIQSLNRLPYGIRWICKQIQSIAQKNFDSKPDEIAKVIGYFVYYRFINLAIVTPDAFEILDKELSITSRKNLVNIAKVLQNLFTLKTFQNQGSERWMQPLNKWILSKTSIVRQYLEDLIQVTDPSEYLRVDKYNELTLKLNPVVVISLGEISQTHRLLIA

Protein sequences, listed by entry. Tags and fused reporters are not part of them. Lines headed by an entry give the natural chain unless they say otherwise; changes in a name come on top.
UniProt P13466: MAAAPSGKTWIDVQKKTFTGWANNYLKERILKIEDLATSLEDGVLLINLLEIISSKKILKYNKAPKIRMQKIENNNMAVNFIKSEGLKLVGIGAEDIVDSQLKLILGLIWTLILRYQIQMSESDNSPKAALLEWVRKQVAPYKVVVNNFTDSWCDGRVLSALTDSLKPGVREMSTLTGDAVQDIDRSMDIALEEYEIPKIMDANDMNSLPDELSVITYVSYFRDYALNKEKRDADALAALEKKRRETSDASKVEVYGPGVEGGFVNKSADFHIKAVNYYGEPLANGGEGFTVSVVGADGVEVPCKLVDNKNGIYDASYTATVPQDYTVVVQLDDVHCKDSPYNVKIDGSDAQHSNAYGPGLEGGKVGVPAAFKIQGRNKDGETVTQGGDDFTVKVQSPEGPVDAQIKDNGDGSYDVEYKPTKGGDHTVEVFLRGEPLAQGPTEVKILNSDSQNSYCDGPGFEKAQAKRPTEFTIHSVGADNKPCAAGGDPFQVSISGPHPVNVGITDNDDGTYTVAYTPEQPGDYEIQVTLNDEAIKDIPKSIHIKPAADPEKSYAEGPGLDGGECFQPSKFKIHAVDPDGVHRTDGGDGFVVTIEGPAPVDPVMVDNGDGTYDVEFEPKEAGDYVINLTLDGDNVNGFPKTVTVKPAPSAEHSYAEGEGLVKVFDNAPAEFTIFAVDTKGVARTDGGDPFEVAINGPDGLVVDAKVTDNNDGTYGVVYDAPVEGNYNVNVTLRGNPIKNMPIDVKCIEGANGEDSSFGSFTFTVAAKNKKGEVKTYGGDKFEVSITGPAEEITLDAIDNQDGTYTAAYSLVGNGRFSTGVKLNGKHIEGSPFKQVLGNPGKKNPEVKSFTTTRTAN
UniProt P34147: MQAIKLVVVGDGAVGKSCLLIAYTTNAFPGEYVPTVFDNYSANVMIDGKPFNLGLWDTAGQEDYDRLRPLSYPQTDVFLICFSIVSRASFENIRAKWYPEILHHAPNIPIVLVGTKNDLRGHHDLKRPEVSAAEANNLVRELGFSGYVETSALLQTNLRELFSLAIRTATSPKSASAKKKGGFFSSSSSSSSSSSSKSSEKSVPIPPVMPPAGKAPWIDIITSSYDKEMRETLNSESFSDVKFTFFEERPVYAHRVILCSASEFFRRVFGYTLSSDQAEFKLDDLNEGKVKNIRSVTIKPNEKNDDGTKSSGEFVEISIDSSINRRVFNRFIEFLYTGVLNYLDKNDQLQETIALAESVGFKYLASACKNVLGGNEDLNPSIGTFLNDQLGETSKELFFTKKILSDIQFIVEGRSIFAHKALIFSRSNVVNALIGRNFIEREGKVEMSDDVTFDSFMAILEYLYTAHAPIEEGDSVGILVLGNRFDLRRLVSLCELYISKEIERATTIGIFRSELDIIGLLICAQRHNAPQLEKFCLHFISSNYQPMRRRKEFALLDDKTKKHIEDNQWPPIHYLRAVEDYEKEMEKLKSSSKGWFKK
UniProt P34148: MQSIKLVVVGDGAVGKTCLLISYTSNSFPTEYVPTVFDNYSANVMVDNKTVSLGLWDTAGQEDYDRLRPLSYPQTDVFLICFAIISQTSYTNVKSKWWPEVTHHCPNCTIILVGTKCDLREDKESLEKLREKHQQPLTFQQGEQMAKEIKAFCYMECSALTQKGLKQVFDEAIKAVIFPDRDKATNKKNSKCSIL
UniProt P34149: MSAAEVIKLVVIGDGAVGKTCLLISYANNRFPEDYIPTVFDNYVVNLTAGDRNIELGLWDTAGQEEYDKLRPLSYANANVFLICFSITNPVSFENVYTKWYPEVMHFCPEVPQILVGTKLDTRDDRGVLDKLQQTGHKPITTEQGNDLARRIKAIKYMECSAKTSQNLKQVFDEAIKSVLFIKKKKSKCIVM

[2] = molecular target: T1, GST-GRD (GRD domain of GAPA, residues 202-557, GST fusion) (D. discoideum); assay: pull-down; GST-GRD bound beads incubated 3 hrs at 4°C with lysates of cells expressing Rac proteins as GFP fusions; 25 mM Tris/HCl pH 7.5, 150 mM NaCl, 5 mM EDTA, 0.5% Triton X-100, 1 mM NaF, 0.5 mM Na3VO4, 1 mM DTT; blot with GFP mAb; only the target purified
[3] = molecular target: GST fused Rac1a (D. discoideum) (D. discoideum) (UniProt P34144); assay: pull-down; GST fused Rac1a with lysates of GAPA^- cells expressing GFP-FLN; blot with GFP mAb; only the target purified
[4] = molecular target: T2, GST-GAPA (full length GAPA, GST fusion) (D. discoideum) (UniProt O00899); assay: pull-down; glutathione sepharose beads coated with GST-GRD or GST-GAPA incubated with D. discoideum cell lysates at 4°C; eluates resolved by SDS-PAGE and immunoblotted; only the target purified
T2 sequence: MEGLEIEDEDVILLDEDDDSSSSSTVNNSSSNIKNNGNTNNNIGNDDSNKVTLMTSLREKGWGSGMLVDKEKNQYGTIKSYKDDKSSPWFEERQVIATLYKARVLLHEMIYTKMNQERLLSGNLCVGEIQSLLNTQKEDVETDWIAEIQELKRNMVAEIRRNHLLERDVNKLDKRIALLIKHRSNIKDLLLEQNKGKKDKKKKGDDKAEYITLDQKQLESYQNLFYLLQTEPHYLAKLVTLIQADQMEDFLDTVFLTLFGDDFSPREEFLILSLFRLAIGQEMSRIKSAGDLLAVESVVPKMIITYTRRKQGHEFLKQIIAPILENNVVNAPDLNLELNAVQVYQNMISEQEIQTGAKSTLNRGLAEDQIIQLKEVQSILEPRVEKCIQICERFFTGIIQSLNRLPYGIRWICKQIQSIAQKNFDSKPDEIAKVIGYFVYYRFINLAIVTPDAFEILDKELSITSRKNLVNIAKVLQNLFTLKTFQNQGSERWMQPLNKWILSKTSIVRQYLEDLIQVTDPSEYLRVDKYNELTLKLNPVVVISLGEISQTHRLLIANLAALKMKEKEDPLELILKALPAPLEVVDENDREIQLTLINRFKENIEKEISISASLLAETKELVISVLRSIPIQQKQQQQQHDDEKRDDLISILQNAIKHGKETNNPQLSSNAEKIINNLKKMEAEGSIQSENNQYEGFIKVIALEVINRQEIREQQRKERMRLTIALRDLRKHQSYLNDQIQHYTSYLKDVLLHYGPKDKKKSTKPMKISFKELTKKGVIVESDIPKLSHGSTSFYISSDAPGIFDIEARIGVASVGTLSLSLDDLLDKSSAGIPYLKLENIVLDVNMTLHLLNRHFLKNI

[5] = molecular target: GST fused Rac1a (D. discoideum) (D. discoideum) (UniProt P34144); assay: pull-down; GST fused Rac1a on glutathione sepharose beads incubated with lysates of cells expressing GFP-GAPA in the presence of either 100 µM GDP or GTPγS; blot with GFP and Filamin mAbs; only the target purified
[6] = molecular target: T1, GST-GRD (GRD domain of GAPA, residues 202-557, GST fusion) (D. discoideum); assay: pull-down; glutathione sepharose beads coated with GST-GRD or GST-GAPA incubated with D. discoideum cell lysates at 4°C; eluates resolved by SDS-PAGE and immunoblotted; only the target purified; remark: listed apart in the source
[7] = molecular target: GST fused Rac1a (D. discoideum) (D. discoideum) (UniProt P34144); assay: pull-down; GST fused Rac1a on glutathione sepharose beads incubated with lysates of cells expressing GFP-GAPA in the presence of either 100 µM GDP or GTPγS; blot with GFP and Filamin mAbs; only the target purified; remark: listed apart in the source
[8] = molecular target: T3, GFP-GAPA (full length GAPA fused to GFP at the N-terminus) (D. discoideum) (UniProt O00899); assay: SEC; analytical gel filtration on Sephadex G200 (SMART system) of lysate of AX2 cells expressing GFP-GAPA; 25 mM Tris/HCl pH 7.5, 150 mM NaCl, 5 mM EDTA, 0.5% Triton-X100, 1 mM DTT; fractions blotted with GFP mAb
T3 sequence: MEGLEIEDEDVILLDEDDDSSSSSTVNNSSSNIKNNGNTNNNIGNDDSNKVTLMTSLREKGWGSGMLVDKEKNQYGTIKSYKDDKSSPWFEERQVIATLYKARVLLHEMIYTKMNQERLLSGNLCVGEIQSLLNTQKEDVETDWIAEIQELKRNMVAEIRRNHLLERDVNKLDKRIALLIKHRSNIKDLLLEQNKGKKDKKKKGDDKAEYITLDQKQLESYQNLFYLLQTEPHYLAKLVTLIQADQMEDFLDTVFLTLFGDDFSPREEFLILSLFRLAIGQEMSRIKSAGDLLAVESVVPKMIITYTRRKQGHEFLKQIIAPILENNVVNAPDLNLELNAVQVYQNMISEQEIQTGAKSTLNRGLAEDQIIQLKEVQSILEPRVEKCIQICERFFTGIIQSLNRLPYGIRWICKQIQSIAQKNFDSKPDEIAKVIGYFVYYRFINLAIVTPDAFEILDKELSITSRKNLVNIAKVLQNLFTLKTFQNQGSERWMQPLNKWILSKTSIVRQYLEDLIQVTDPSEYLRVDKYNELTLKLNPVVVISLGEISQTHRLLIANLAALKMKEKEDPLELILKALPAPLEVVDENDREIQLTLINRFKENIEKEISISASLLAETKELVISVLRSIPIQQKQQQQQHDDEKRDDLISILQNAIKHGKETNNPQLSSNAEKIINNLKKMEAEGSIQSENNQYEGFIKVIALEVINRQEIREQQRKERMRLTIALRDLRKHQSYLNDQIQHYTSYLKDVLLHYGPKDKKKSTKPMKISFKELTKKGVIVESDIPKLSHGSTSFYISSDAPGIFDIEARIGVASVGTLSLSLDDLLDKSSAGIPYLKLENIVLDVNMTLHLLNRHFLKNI

[9] = molecular target: T3, GFP-GAPA (full length GAPA fused to GFP at the N-terminus) (D. discoideum); assay: co-IP; GFP-GAPA immunoprecipitated with GFP mAb K3-184-2 from extracts of cells expressing GFP-GAPA; blot with polyclonal antibodies against Cortexillin I

- binding [1]: binds
Molecule: GFP-FLN^S174A (full length Filamin mutated at position 174 in the ABD, GFP-tagged) (from UniProt P13466 1-857)

- binding [2]: binds
Molecule: GFP-RacA (D. discoideum RacA as GFP fusion) (from UniProt P34147 1-598)

- binding [3]: binds
- binding [1]: binds
Molecule: GFP-FLN (full length Filamin with GFP at the C-terminus) (from UniProt P13466 1-857)

- binding [4]: binds
- binding [1]: binds
- binding [5]: binds
Molecule: Filamin (endogenous, D. discoideum) (from UniProt P13466 1-857)

- binding [2]: binds
Molecule: GFP-RacB (D. discoideum RacB as GFP fusion) (from UniProt P34148 1-195)

- binding [2]: binds
Molecule: GFP-RacC (D. discoideum RacC as GFP fusion) (from UniProt P34149 1-192)

- binding [2]: binds
Molecule: GFP-Rac1a (D. discoideum Rac1a as GFP fusion) (from UniProt P34144 1-194)

- binding [2]: binds
B1: GFP-RacE (D. discoideum RacE as GFP fusion) (protein, UniProt Q23862 1-223)
chain: MSEDQGSGATRVKLVVVGDGAVGKTCLLICYAQNDFPVDYVPTVFENYTATRKRGNEDIKVHLWDTAGQEEYDRLRPLSYPGADVVLLCFSTISQSSYEAIRDKWAPEVNHYIPDVPSILVGTKIDLREQQHPDPNSGKFEPITADMGISMQKQIKAKKYLEVSAKTRQGLEEVFSAAIEIVLESRGMDKKSQDGSSSASGVPSGDKPTKGKAGKKKSGCIIL

- binding [6]: no binding
B2: Cortexillin II (D. discoideum, from cell lysate) (protein, UniProt Q550R2 1-441)
chain: MDLNKEWEKVQEMAFTSWVNSVLEKRGCDKISDVSTDLSDGVKLIYFLESVSGKKFPKKFDLEPKTRIMRVQNLHLAMLFIDEDLKIKVQGVAAEEFVDNNKKMILGFLWTLYRKYRISVINEGDKSSEEGLLAWCKKTTEGYNNVNITGFKSSFRDGHGFLALAHKYDPTVFKYDEYEGHDNIARLNAAFDFAEKGLGIPKLLEAESLSKGNVDERSIVLYTSLFFHAFRAKEEREALEASQNSLNNKLASLEQSLEGEKHSQEELVKQKKDLEDALNKIREQNDNRNSRITDLQSKIDDALRGLDDEKLAKLDLESRLAKCEKDKAILELKLAEILDEKDRLEKKIDEDKKRAEAERLGLGLIRQHLAAQFSDIHKWQSFLEHPETVPYTGTPVDLDSELSSLSFEEQAKKLASKLESENILIEKYLNGKEEAKAAAKK

- binding [6]: binds
- binding [7]: binds
- binding [8]: binds
B3: GFP-GAPA (full length GAPA fused to GFP at the N-terminus) (protein, UniProt O00899 1-860)
chain: MEGLEIEDEDVILLDEDDDSSSSSTVNNSSSNIKNNGNTNNNIGNDDSNKVTLMTSLREKGWGSGMLVDKEKNQYGTIKSYKDDKSSPWFEERQVIATLYKARVLLHEMIYTKMNQERLLSGNLCVGEIQSLLNTQKEDVETDWIAEIQELKRNMVAEIRRNHLLERDVNKLDKRIALLIKHRSNIKDLLLEQNKGKKDKKKKGDDKAEYITLDQKQLESYQNLFYLLQTEPHYLAKLVTLIQADQMEDFLDTVFLTLFGDDFSPREEFLILSLFRLAIGQEMSRIKSAGDLLAVESVVPKMIITYTRRKQGHEFLKQIIAPILENNVVNAPDLNLELNAVQVYQNMISEQEIQTGAKSTLNRGLAEDQIIQLKEVQSILEPRVEKCIQICERFFTGIIQSLNRLPYGIRWICKQIQSIAQKNFDSKPDEIAKVIGYFVYYRFINLAIVTPDAFEILDKELSITSRKNLVNIAKVLQNLFTLKTFQNQGSERWMQPLNKWILSKTSIVRQYLEDLIQVTDPSEYLRVDKYNELTLKLNPVVVISLGEISQTHRLLIANLAALKMKEKEDPLELILKALPAPLEVVDENDREIQLTLINRFKENIEKEISISASLLAETKELVISVLRSIPIQQKQQQQQHDDEKRDDLISILQNAIKHGKETNNPQLSSNAEKIINNLKKMEAEGSIQSENNQYEGFIKVIALEVINRQEIREQQRKERMRLTIALRDLRKHQSYLNDQIQHYTSYLKDVLLHYGPKDKKKSTKPMKISFKELTKKGVIVESDIPKLSHGSTSFYISSDAPGIFDIEARIGVASVGTLSLSLDDLLDKSSAGIPYLKLENIVLDVNMTLHLLNRHFLKNI

- binding [6]: binds
- binding [9]: binds
B4: Cortexillin I (endogenous, D. discoideum) (protein, UniProt Q54HG2 1-444)
chain: MAGKDWEIVQEKAFTAWVNSVLDKRGEKISDVGKDLSDGVKLIFFLELISSKKFNKKYDFEPKARINMIQNVALALKFLDEELKIKVQGIGSEDFVDNNKKMILGFLWTLYRKYRIAVISEGDKSSEEGLLLWCKNTTTGYDGVNITSFTKSFRDGLAFLALSHKFEPESFKFQEFEAMDPIARLNAAFDFAEKGLGVPKLLEAEEVMRGTTDERSLVLYTSLFFHAYRAKEEKARLESSKNEMANRLAGLENSLESEKVSREQLIKQKDQLNSLLASLESEGAEREKRLRELEAKLDETLKNLELEKLARMELEARLAKTEKDRAILELKLAEAIDEKSKLEQQIEATRIRGAAEAQGLGLLRKNLDTHVHDLLKWQKLTMENSSSSSIDDQIIVEVSGLPFGEQVKHLATKLEAENLAIMKLLNQKEDDLKAQKLKSSKSKK

From paper PMC2978108
